Results from the supplement of paper PMC8728848.
This is one part of the list.

Key:
Test in all cases: glycan array binding signal (z-score within array); higher = stronger binding
Conditions in all cases: glycan notation: IUPAC condensed, linker removed
[1] = molecular target: Gal(b1-3)GlcNAc(b1-3)Gal(b1-3)GlcNAc
Summary of the method: (§1)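 Glycan array data came from 3228 arrays in the Consortium for Functional Glycomics database, and only arrays with an available protein sequence were kept. Glycan names were put into IUPAC-condensed notation, and columns mapping to the same glycan were averaged. The binding signal is a within-array Z-score, averaged across arrays of one protein sequence run at different concentrations or buffers and across linkers. A negative Z-score can be read as non-binding.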

[2] = molecular target: Gal(b1-3)GlcNAc(b1-3)Gal(b1-4)Glc
Summary of the method: as §1

[3] = molecular target: Gal(b1-3)GlcNAc(b1-3)Gal(b1-4)GlcNAc
Summary of the method: as §1

[4] = molecular target: Gal(b1-3)GlcNAc(b1-3)Gal(b1-4)GlcNAc(b1-2)Man(a1-3)[Gal(b1-3)GlcNAc(b1-3)Gal(b1-4)GlcNAc(b1-2)Man(a1-6)]Man(b1-4)GlcNAc(b1-4)GlcNAc
Summary of the method: as §1

[5] = molecular target: Gal(b1-3)GlcNAc(b1-3)Gal(b1-4)GlcNAc(b1-2)[Gal(b1-3)GlcNAc(b1-3)Gal(b1-4)GlcNAc(b1-6)]Man(a1-6)[Gal(b1-3)GlcNAc(b1-3)Gal(b1-4)GlcNAc(b1-2)Man(a1-3)]Man(b1-4)GlcNAc(b1-4)[Fuc(a1-6)]GlcNAc
Summary of the method: as §1

[6] = molecular target: Gal(b1-3)GlcNAc(b1-3)Gal(b1-4)GlcNAc(b1-3)Gal(b1-4)GlcNAc(b1-2)[Gal(b1-3)GlcNAc(b1-3)Gal(b1-4)GlcNAc(b1-3)Gal(b1-4)GlcNAc(b1-6)]Man(a1-6)[Gal(b1-3)GlcNAc(b1-3)Gal(b1-4)GlcNAc(b1-3)Gal(b1-4)GlcNAc(b1-2)Man(a1-3)]Man(b1-4)GlcNAc(b1-4)[Fuc(a1-6)]GlcNAc
Summary of the method: as §1

[7] = molecular target: Gal(b1-3)GlcNAc(b1-3)Gal(b1-4)GlcNAc(b1-6)[Gal(b1-3)GlcNAc(b1-3)]Gal(b1-4)Glc
Summary of the method: as §1

[8] = molecular target: Gal(b1-3)GlcNAc(b1-3)Gal(b1-4)[Fuc(a1-3)]GlcNAc
Summary of the method: as §1

[9] = molecular target: Gal(b1-3)GlcNAc(b1-3)Gal(b1-4)[Fuc(a1-3)]GlcNAc(b1-6)[Gal(b1-3)GlcNAc(b1-3)]Gal(b1-4)Glc
Summary of the method: as §1

[10] = molecular target: Gal(b1-3)GlcNAc(b1-3)GalNAc
Summary of the method: as §1

[11] = molecular target: Gal(b1-3)GlcNAc(b1-6)Gal(b1-4)GlcNAc
Summary of the method: as §1

[12] = molecular target: Gal(b1-3)GlcNAc(b1-6)GalNAc
Summary of the method: as §1

[13] = molecular target: Gal(b1-3)GlcNAc(b1-6)[Gal(b1-3)]GalNAc
Summary of the method: as §1

Gal(b1-3)GlcNAc6S = molecular target: Gal(b1-3)GlcNAc6S
Summary of the method: as §1

[14] = molecular target: Gal(b1-3)[Fuc(a1-4)]GlcNAc
Summary of the method: as §1

[15] = molecular target: Gal(b1-3)[Fuc(a1-4)]GlcNAc(b1-2)Man
Summary of the method: as §1

[16] = molecular target: Gal(b1-3)[Fuc(a1-4)]GlcNAc(b1-2)Man(a1-3)[Gal(b1-3)[Fuc(a1-4)]GlcNAc(b1-2)Man(a1-6)]Man(b1-4)GlcNAc(b1-4)[Fuc(a1-6)]GlcNAc
Summary of the method: as §1

[17] = molecular target: Gal(b1-3)[Fuc(a1-4)]GlcNAc(b1-3)Gal(b1-3)[Fuc(a1-4)]GlcNAc
Summary of the method: as §1

[18] = molecular target: Gal(b1-3)[Fuc(a1-4)]GlcNAc(b1-3)Gal(b1-4)GlcNAc
Summary of the method: as §1

[19] = molecular target: Gal(b1-3)[Fuc(a1-4)]GlcNAc(b1-3)Gal(b1-4)[Fuc(a1-3)]GlcNAc
Summary of the method: as §1

[20] = molecular target: Gal(b1-3)[Fuc(a1-4)]GlcNAc(b1-6)GalNAc
Summary of the method: as §1

[21] = molecular target: Gal(b1-3)[GlcNAc(b1-6)]GalNAc
Summary of the method: as §1

[22] = molecular target: Gal(b1-3)[Neu5Ac(a2-6)]GalNAc
Summary of the method: as §1

[23] = molecular target: Gal(b1-3)[Neu5Ac(a2-6)]GlcNAc(b1-4)Gal(b1-4)Glc
Summary of the method: as §1

[24] = molecular target: Gal(b1-3)[Neu5Ac(a2-6)]GlcNAc(b1-6)Gal(b1-4)Glc
Summary of the method: as §1

[25] = molecular target: Gal(b1-3)[Neu5Ac(b2-6)]GalNAc
Summary of the method: as §1

Gal(b1-4)Gal = molecular target: Gal(b1-4)Gal
Summary of the method: as §1

[26] = molecular target: Gal(b1-4)GalNAc(a1-3)[Fuc(a1-2)]Gal(b1-4)GlcNAc
Summary of the method: as §1

[27] = molecular target: Gal(b1-4)GalNAc(b1-3)[Fuc(a1-2)]Gal(b1-4)GlcNAc
Summary of the method: as §1

Gal(b1-4)Glc = molecular target: Gal(b1-4)Glc
Summary of the method: as §1

Gal(b1-4)Glc6S = molecular target: Gal(b1-4)Glc6S
Summary of the method: as §1

Gal(b1-4)GlcNAc = molecular target: Gal(b1-4)GlcNAc
Summary of the method: as §1

[28] = molecular target: Gal(b1-4)GlcNAc(a1-6)Gal(b1-4)GlcNAc
Summary of the method: as §1

Gal(b1-4)GlcNAc(b1-2)Man = molecular target: Gal(b1-4)GlcNAc(b1-2)Man
Summary of the method: as §1

[29] = molecular target: Gal(b1-4)GlcNAc(b1-2)Man(a1-3)Man(b1-4)GlcNAc(b1-4)GlcNAc
Summary of the method: as §1

[30] = molecular target: Gal(b1-4)GlcNAc(b1-2)Man(a1-3)[Gal(b1-4)GlcNAc(b1-2)Man(a1-6)]Man(b1-4)GlcNAc(b1-4)GlcNAc
Summary of the method: as §1

[31] = molecular target: Gal(b1-4)GlcNAc(b1-2)Man(a1-3)[Gal(b1-4)GlcNAc(b1-2)Man(a1-6)]Man(b1-4)GlcNAc(b1-4)[Fuc(a1-6)]GlcNAc
Summary of the method: as §1

B1: LlpA1 (Pseudomonas fluorescens), Q4KHC3 (protein)
chain: MGSSHHHHHHSSGLVPRGSHMAWIRYDFTDNGSSVLPARYYMAPNQYLQSPNKRFKLLFQADGNLALYDGAQLAWVADQNTPFTNVSKGNKKDPMMVFMNYGFVLDDPLRGRIWSTTPSDPTMGSREDASLRAFTQVQDDGNIVTVDTIPHWYAPNGRVFTPAVGAAMIIGGTTELVPGQFYSAGEHSLVFQGDGNLVVYGPNSSVIWATYTQNKGGVRCVMQEDGNLVIYAANNGVVWQSGTGGHPGATIRLQANGSFTIVTERPVWARFGYTPTIKPPRVFYPDHKWKTGSYTWNNVF
[1]
  glycan array binding signal (z-score): 0.085
[2]
  glycan array binding signal (z-score): -0.576
[3]
  glycan array binding signal (z-score): -0.593
[4]
  glycan array binding signal (z-score): 0.448
[5]
  glycan array binding signal (z-score): 0.631
[6]
  glycan array binding signal (z-score): 1.85
[7]
  glycan array binding signal (z-score): -0.524
[8]
  glycan array binding signal (z-score): -0.74
[9]
  glycan array binding signal (z-score): -0.162
[10]
  glycan array binding signal (z-score): -0.529
[11]
  glycan array binding signal (z-score): -0.035
[12]
  glycan array binding signal (z-score): 0.456
[13]
  glycan array binding signal (z-score): 0.763
Gal(b1-3)GlcNAc6S
  glycan array binding signal (z-score): -0.168
[14]
  glycan array binding signal (z-score): -0.2
[15]
  glycan array binding signal (z-score): 0.242
[16]
  glycan array binding signal (z-score): 0.668
[17]
  glycan array binding signal (z-score): -0.542
[18]
  glycan array binding signal (z-score): -0.53
[19]
  glycan array binding signal (z-score): -0.172
[20]
  glycan array binding signal (z-score): 1.02
[21]
  glycan array binding signal (z-score): -0.107
[22]
  glycan array binding signal (z-score): -0.323
[23]
  glycan array binding signal (z-score): -0.576
[24]
  glycan array binding signal (z-score): -0.705
[25]
  glycan array binding signal (z-score): -0.183
Gal(b1-4)Gal
  glycan array binding signal (z-score): -0.15
[26]
  glycan array binding signal (z-score): -0.607
[27]
  glycan array binding signal (z-score): -0.728
Gal(b1-4)Glc
  glycan array binding signal (z-score): -0.34
Gal(b1-4)Glc6S
  glycan array binding signal (z-score): -0.122
Gal(b1-4)GlcNAc
  glycan array binding signal (z-score): -0.082
[28]
  glycan array binding signal (z-score): -0.492
Gal(b1-4)GlcNAc(b1-2)Man
  glycan array binding signal (z-score): -0.776
[29]
  glycan array binding signal (z-score): 0.096
[30]
  glycan array binding signal (z-score): -0.071
[31]
  glycan array binding signal (z-score): 1.77
